# Experimental data as given in patent US20050058600A1, “3,3'-Diindolylmethane antiandrogenic compositions” (priority 2003, published 2005).
# At least one compound was matched to its structure with a doubt left.
# Tested on: Castrated rats implanted with two capsules containing testosterone
# Conditions: gavage 5 days; DIM derivative 0.1-10 mg/kg/day, flutamide 10 mg/kg/day
smiles,measurement,value
"CC(C)C(=O)Nc1ccc([N+](=O)[O-])c(C(F)(F)F)c1 [flutamide, Flutamide]","histopathology of ventral prostate, seminal vesicles and levator ani plus bulbocavernosus muscles",ventral prostate and seminal vesicle atrophy
same,"recovered mass of seminal vesicle, levator ani and bulbocavernosus muscles and ventral prostate vs vehicle",dose-dependently decrease
